The numbers were not newly measured in US20060189576A1, “Substituted vitamin d analogues and their therapeutic uses” (priority 2003, published 2006), which cites them from elsewhere.

This series relates to MCF-7 cells. As to conditions: known superagonists; data published in J Bone Mineral Res 15 (2): 237-252 (2000); cited from earlier work.

Turning to `C=C1/C(=C\C=C2/CCC[C@]3(C)[C@@H]([C@H](C)OCCC(C)(C)O)CC[C@@H]23)C[C@@H](O)C[C@@H]1O` [OCT], the Specificity ratio was 330-500.

For `C=C1/C(=C\C=C2/CCC[C@]3(C)[C@@H]([C@H](C)/C=C/[C@@H](O)C4CC4)CC[C@@H]23)C[C@@H](O)C[C@@H]1O` [MC 903], the Specificity ratio is 200.
